Data as given in PubChem BioAssay AID1224828 (NIAID, 2016)
Test: 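Regulators linking TLR4 signalling to p65 nuclear translocation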 (primary screen). Cells: mouse RAW264.7 G9 macrophage reporter cells (GFP-p65, Tnf promoter-mCherry). Reagents: siRNA pool against mouse genes, 100 nM. Duration: 2 days siRNA transfection, then 40 min LPS before fixation. Treatment: LPS (Salmonella minnesota R595) at 10 ng/ml. Read-out: 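Microscopy ratio of nuclear to perinuclear-ring GFP-p65 signal, scaled to the plate median; gene score is the average of two replicate robust z-scores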. Scale: p65 translocation robust z-score: higher = more nuclear NF-kappaB p65 after LPS than the plate median; nuclear/cytoplasmic p65 ratio: higher = more nuclear NF-kappaB p65. Hit rule: 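Called active when z exceeds 3.3 or falls under -1.56 (median of Tlr4 controls), giving activity score of at least 50; no calls for control wells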. Meaning of the calls: active = hit (p65 shift raised or lowered); inactive = no clear change.
The deposit covers about 17,000 reagents; shown is an unselected part. 762 of all reagents (4.5%) count as active. 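Active calls include both raised and lowered p65 entry, mostly lowered; wells with fewer than 50 cells lack a z-score.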 Raw values are not corrected between plates.

With knock-down of Cdkl1, the screen gave p65 translocation robust z-score 1.14; nuclear/cytoplasmic p65 ratio, rep 1 = 1.91; nuclear/cytoplasmic p65 ratio, rep 2 = 1.5; low cell count flag enough cells to score; inactive.
After knock-down of Gm2a, the screen gave p65 translocation robust z-score 0.4; nuclear/cytoplasmic p65 ratio, rep 1 = 1.49; nuclear/cytoplasmic p65 ratio, rep 2 = 1.42; low cell count flag enough cells to score; inactive.
Pdlim7 scored p65 translocation robust z-score -0.86; nuclear/cytoplasmic p65 ratio, rep 1 = 1.26; nuclear/cytoplasmic p65 ratio, rep 2 = 1.2; low cell count flag enough cells to score; inactive.
For Anxa2, the entry reads p65 translocation robust z-score -0.63; nuclear/cytoplasmic p65 ratio, rep 1 = 1.52; nuclear/cytoplasmic p65 ratio, rep 2 = 1.52; low cell count flag enough cells to score; inactive.
Knock-down of Clgn resulted in: p65 translocation robust z-score 0.73; nuclear/cytoplasmic p65 ratio, rep 1 = 1.64; nuclear/cytoplasmic p65 ratio, rep 2 = 1.41; low cell count flag enough cells to score; inactive.
With knock-down of Trip10, the record shows p65 translocation robust z-score 0.6; nuclear/cytoplasmic p65 ratio, rep 1 = 1.56; nuclear/cytoplasmic p65 ratio, rep 2 = 1.62; low cell count flag enough cells to score; inactive.
Erg showed p65 translocation robust z-score -0.88; nuclear/cytoplasmic p65 ratio, rep 1 = 1.29; nuclear/cytoplasmic p65 ratio, rep 2 = 1.3; low cell count flag enough cells to score; inactive.
Ttll8 scored nuclear/cytoplasmic p65 ratio, rep 1 = 1.83; nuclear/cytoplasmic p65 ratio, rep 2 = 1.69; low cell count flag fewer than 50 cells per well; well left out of scoring; inactive.
Depletion of Entpd7 came out at: p65 translocation robust z-score 0.4; nuclear/cytoplasmic p65 ratio, rep 1 = 1.66; nuclear/cytoplasmic p65 ratio, rep 2 = 1.51; low cell count flag enough cells to score; inactive.
Silencing of Tlr4 came out at: p65 translocation robust z-score -2.38; nuclear/cytoplasmic p65 ratio, rep 1 = 0.99; nuclear/cytoplasmic p65 ratio, rep 2 = 1.08; low cell count flag enough cells to score; active.
Silencing of Gkn2 resulted in: nuclear/cytoplasmic p65 ratio, rep 1 = 1.18; nuclear/cytoplasmic p65 ratio, rep 2 = 1.22; low cell count flag fewer than 50 cells per well; well left out of scoring; inactive.
With knock-down of Slc26a3, the screen gave p65 translocation robust z-score 0.93; nuclear/cytoplasmic p65 ratio, rep 1 = 1.63; nuclear/cytoplasmic p65 ratio, rep 2 = 1.67; low cell count flag enough cells to score; inactive.
Cbr2 gave p65 translocation robust z-score 0.45; nuclear/cytoplasmic p65 ratio, rep 1 = 1.69; nuclear/cytoplasmic p65 ratio, rep 2 = 1.82; low cell count flag enough cells to score; inactive.
Poc5 gave p65 translocation robust z-score -1.34; nuclear/cytoplasmic p65 ratio, rep 1 = 1.21; nuclear/cytoplasmic p65 ratio, rep 2 = 1.25; low cell count flag enough cells to score; inactive.

2 entries from above, set out differently.
| target | p65 translocation robust z-score | nuclear/cytoplasmic p65 ratio, rep 1 | nuclear/cytoplasmic p65 ratio, rep 2 | low cell count flag | Call |
| --- | --- | --- | --- | --- | --- |
| Entpd7 | 0.4 | 1.66 | 1.51 | enough cells to score | inactive |
| Tlr4 | -2.38 | 0.99 | 1.08 | enough cells to score | active |

The results go on:
For Or10h1b, the values are nuclear/cytoplasmic p65 ratio, rep 1 = 1.48; nuclear/cytoplasmic p65 ratio, rep 2 = 1.38; low cell count flag fewer than 50 cells per well; well left out of scoring; inactive.
Knock-down of Rack1 resulted in: p65 translocation robust z-score -0.89; nuclear/cytoplasmic p65 ratio, rep 1 = 1.29; nuclear/cytoplasmic p65 ratio, rep 2 = 1.28; low cell count flag enough cells to score; inactive.
Silencing of Fam13b resulted in: p65 translocation robust z-score 1.97; nuclear/cytoplasmic p65 ratio, rep 1 = 1.71; nuclear/cytoplasmic p65 ratio, rep 2 = 1.97; low cell count flag enough cells to score; inactive.
Against Pdyn, the entry reads p65 translocation robust z-score -0.51; nuclear/cytoplasmic p65 ratio, rep 1 = 1.17; nuclear/cytoplasmic p65 ratio, rep 2 = 1.19; low cell count flag enough cells to score; inactive.
For Abo, the entry reads p65 translocation robust z-score 1.22; nuclear/cytoplasmic p65 ratio, rep 1 = 1.74; nuclear/cytoplasmic p65 ratio, rep 2 = 1.92; low cell count flag enough cells to score; inactive.
Pcdha10 showed p65 translocation robust z-score 0.27; nuclear/cytoplasmic p65 ratio, rep 1 = 1.56; nuclear/cytoplasmic p65 ratio, rep 2 = 1.21; low cell count flag enough cells to score; inactive.
Myh11 gave p65 translocation robust z-score -0.24; nuclear/cytoplasmic p65 ratio, rep 1 = 1.43; nuclear/cytoplasmic p65 ratio, rep 2 = 1.29; low cell count flag enough cells to score; inactive.
